In the supplement of paper PMC10735217 one finds TEAD-luciferase reporter activity data, which are given here for 34 compounds.

The experiment concerns HEK293A TEAD-LUC reporter. Briefly: TEAD-luciferase reporter activity (YAP activation), robust Z score vs plate; higher = stronger YAP/TEAD activation. The note with it: 24 h.

Values joined by “and” are separate entries in the source; they are usually repeats but may differ in a detail not shown here. Equal values may be shown once. Where a name gives a salt, the structure may show the parent alone. This is one part of the list. Single values are uncertain here, since repeats match poorly.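 Human kidney-derived cells stably carry a construct in which eight TEAD-binding elements drive luciferase, measured by luminescence in a drug-repurposing library screen. A hit is any compound whose signal exceeds the plate mean by more than five robust Z scores.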

Consider `O=C1c2cccc(O)c2C(=O)c2c(O)cccc21`, for which the TEAD-luciferase reporter activity by setting is: (compound concentration: 200 nM) inactive: -1.44; (compound concentration: 2 uM) inactive: 2.66; (compound concentration: 10 uM) inactive: 1.95.

Consider `CC(=O)OC(C)C(=O)OCC[N+](C)(C)C` (stereo not given) [aclatonium napadisilate], for which the TEAD-luciferase reporter activity by setting is: (compound concentration: 200 nM) inactive: -1.71; (compound concentration: 2 uM) inactive: -0.335; (compound concentration: 10 uM) inactive: 2.1.

As for `CCOC(=O)[C@@H](N)CCC(=O)N[C@@H](CSCc1ccccc1)C(=O)N[C@@H](C(=O)OCC)c1ccccc1` [ezatiostat hydrochloride], the TEAD-luciferase reporter activity runs as follows: (compound concentration: 200 nM) inactive: -0.859; (compound concentration: 2 uM) inactive: -1.56; (compound concentration: 10 uM) inactive: 4.01.

Take `C#C[C@]1(O)CC[C@H]2[C@@H]3CCC4=CC(N=O)CC[C@@H]4[C@H]3CC[C@@]21CC` (stereo not given in full) [Norelgestromin]: the TEAD-luciferase reporter activity (compound concentration: 200 nM) is inactive: -1.17, the TEAD-luciferase reporter activity (compound concentration: 2 uM) was inactive: -0.0673 and the TEAD-luciferase reporter activity (compound concentration: 10 uM) was inactive: -2.31.

Consider `O=C(Nc1cccnn1)N1CCC(=Cc2cccc(Oc3ccc(C(F)(F)F)cn3)c2)CC1`, for which the TEAD-luciferase reporter activity is inactive: 0.148 (compound concentration: 200 nM), inactive: -0.973 (compound concentration: 2 uM) and inactive: -1.14 (compound concentration: 10 uM).

`CCCCC[C@H](O)/C=C/[C@H]1[C@H](O)CC(=O)[C@@H]1C/C=C\CCCC(=O)OC`: the TEAD-luciferase reporter activity is, setting by setting: (compound concentration: 200 nM) inactive: -0.832; (compound concentration: 2 uM) inactive: -0.615; (compound concentration: 10 uM) inactive: -0.377.

`Cc1c(O)cc(C(C)C)cc1OCCN(C)C` [Deacetyl moxisylyte hydrochloride]: the TEAD-luciferase reporter activity is, setting by setting: (compound concentration: 200 nM) inactive: 0.286; (compound concentration: 2 uM) inactive: 0.185; (compound concentration: 10 uM) inactive: -0.137.

With `COc1cccc2c1[C@@H]1CN(CCCCn3c(=O)[nH]c4c(sc5ncc(-c6ccccc6)nc54)c3=O)C[C@@H]1CO2` [Fiduxosin hydrochloride], the TEAD-luciferase reporter activity is, setting by setting: (compound concentration: 200 nM) inactive: -0.688; (compound concentration: 2 uM) inactive: -0.655; (compound concentration: 10 uM) inactive: 0.756.

`COc1ccccc1CN1CCCC12Cc1ccccc1CNC2=O` (stereo not given): the TEAD-luciferase reporter activity runs as follows: (compound concentration: 200 nM) inactive: -0.471; (compound concentration: 10 uM) inactive: -0.265.

In the case of `O=C(O)c1cccc(Cc2cc(Cl)ccc2OCc2ccc(Cl)cc2F)n1`, the TEAD-luciferase reporter activity is, setting by setting: (compound concentration: 200 nM) inactive: -0.463; (compound concentration: 2 uM) inactive: -0.284; (compound concentration: 10 uM) active: 8.

Consider `CCCCC(CC)CNC(=O)CC(C)OC(=O)CCC(=O)O` (stereo not given) [butoctamide hydrogen succinate], for which the TEAD-luciferase reporter activity runs as follows: (compound concentration: 200 nM) inactive: 0.188; (compound concentration: 2 uM) inactive: -1.19; (compound concentration: 10 uM) inactive: -1.34.

On to `O=C(O)C1CN(CCCP(=O)(O)O)CCN1` (stereo not given), for which the TEAD-luciferase reporter activity runs as follows: (compound concentration: 200 nM) inactive: -0.0612; (compound concentration: 10 uM) inactive: 1.32.

Consider `COc1ccc2c(c1)OC(C)(C)[C@H](c1ccccc1)[C@H]2c1ccc(OCCN2CCCC2)cc1`, for which the TEAD-luciferase reporter activity is inactive: -1.85 (compound concentration: 200 nM), inactive: 1.33 (compound concentration: 2 uM) and inactive: 0.248 (compound concentration: 10 uM).

As for `CN(C)CCCN1c2ccccc2C=Cc2ccccc21`, the TEAD-luciferase reporter activity is inactive: -1.11 (compound concentration: 200 nM), inactive: 0.537 (compound concentration: 2 uM) and inactive: 2.51 (compound concentration: 10 uM).

For `OCC(CO)(CCl)CCl`, the TEAD-luciferase reporter activity by setting is: (compound concentration: 200 nM) inactive: 1.2; (compound concentration: 2 uM) inactive: -0.459; (compound concentration: 10 uM) inactive: 0.794.

Regarding `Fc1ccc2c(CCNCc3cccc(OCC(F)(F)C(F)(F)F)c3)c[nH]c2c1`, the TEAD-luciferase reporter activity (compound concentration: 200 nM) is inactive: -0.0352 and the TEAD-luciferase reporter activity (compound concentration: 10 uM) was inactive: 1.29.

In the case of `CN1CCCC1c1cccnc1` (stereo not given) [nicotine, Neuraltus], the TEAD-luciferase reporter activity was inactive: -0.999 (compound concentration: 200 nM), inactive: 2.15 (compound concentration: 2 uM) and inactive: -0.989 (compound concentration: 10 uM).

Consider `CNC(=O)c1cnn(-c2nc(N)c3ncn([C@@H]4O[C@H](CO)C(O)C4O)c3n2)c1` (stereo not given in full), for which the TEAD-luciferase reporter activity by setting is: (compound concentration: 200 nM) inactive: 0.256; (compound concentration: 2 uM) inactive: 1.63; (compound concentration: 10 uM) inactive: 3.9.

Take `CC(C)COCC(CN(Cc1ccccc1)c1ccccc1)N1CCCC1` (stereo not given) [bepridil]: the TEAD-luciferase reporter activity (compound concentration: 200 nM) is inactive: 0.845, the TEAD-luciferase reporter activity (compound concentration: 2 uM) is inactive: 2.9 and the TEAD-luciferase reporter activity (compound concentration: 10 uM) is inactive: 4.13.

Take `CC(=O)c1cc(C)cc(C)c1NC(=O)c1sccc1S(=O)(=O)Nc1onc(C)c1C`: the TEAD-luciferase reporter activity by setting is: (compound concentration: 200 nM) inactive: -1.53; (compound concentration: 2 uM) inactive: 1.42; (compound concentration: 10 uM) inactive: -1.18.

As to `O=C([O-])[C@H](O)[C@@H](O)[C@H](O)[C@H](O)CO` [Zinc gluconate], the TEAD-luciferase reporter activity (compound concentration: 2 uM) is inactive: -1.37.

As to `O=C([O-])[C@H](O)[C@@H](O)[C@H](O)[C@H](O)CO`, the TEAD-luciferase reporter activity by setting is: (compound concentration: 200 nM) inactive: -1.25; (compound concentration: 10 uM) inactive: -0.673.

In the case of `COCCOCCNCC1COc2ccccc2O1` (stereo not given), the TEAD-luciferase reporter activity reads like this: (compound concentration: 200 nM) inactive: -0.899; (compound concentration: 2 uM) inactive: 1.84; (compound concentration: 10 uM) inactive: -0.675.

Consider `C=CCN(/C=C1\C(=O)O[C@H](COC)[C@@]2(C)C1=C(O)C(=O)C1=C2[C@H](OC(C)=O)C[C@]2(C)C(=O)CC[C@@H]12)CC=C` [Sonolisib], for which the TEAD-luciferase reporter activity (compound concentration: 200 nM) was inactive: 0.552, the TEAD-luciferase reporter activity (compound concentration: 2 uM) was inactive: -1.14 and the TEAD-luciferase reporter activity (compound concentration: 10 uM) was inactive: -1.24.

For the compound `CC(C)(C)NCC(O)CSc1nc(-c2ccc(C(N)=O)s2)cs1` (stereo not given) [arotinolol], the TEAD-luciferase reporter activity was inactive: -2.02 (compound concentration: 200 nM), inactive: -1.14 (compound concentration: 2 uM) and inactive: 0.166 (compound concentration: 10 uM).

On to `Oc1ccc2c(c1)OC[C@H](c1ccccc1)[C@@H]2c1ccc(OCCN2CCCC2)cc1`, for which the TEAD-luciferase reporter activity by setting is: (compound concentration: 200 nM) inactive: 2.31; (compound concentration: 2 uM) inactive: -0.212; (compound concentration: 10 uM) inactive: -1.16.

Turning to `CCCCCCCCCCCCCCCC(=O)OCC(=O)[C@@]1(O)[C@H](C)C[C@H]2[C@@H]3CCC4=CC(=O)C=CC4(C)[C@@]3(F)[C@@H](O)CC21C` (stereo not given in full) [Dexamethasone 21-Palmitate], the TEAD-luciferase reporter activity is inactive: -1.88 (compound concentration: 200 nM), inactive: -0.543 (compound concentration: 2 uM) and inactive: 0.432 (compound concentration: 10 uM).

As to `COc1c(N2CCC[C@H](N)C2)ccc2c(=O)c(C(=O)O)cn(C3CC3)c12`, the TEAD-luciferase reporter activity (compound concentration: 200 nM) is inactive: -0.749, the TEAD-luciferase reporter activity (compound concentration: 2 uM) is inactive: -0.229 and the TEAD-luciferase reporter activity (compound concentration: 10 uM) was inactive: -0.617.

On to `CCCCCCCCCCCCCCCC(=O)OCC(NC(=O)C(Cl)Cl)C(O)c1ccc([N+](=O)[O-])cc1` (stereo not given), for which the TEAD-luciferase reporter activity is, setting by setting: (compound concentration: 200 nM) inactive: 1.95; (compound concentration: 2 uM) inactive: -1.09; (compound concentration: 10 uM) inactive: -0.201.

For the compound `CC(=O)NCCOC(=O)C(Oc1cccc(C(F)(F)F)c1)c1ccc(Cl)cc1` (stereo not given), the TEAD-luciferase reporter activity by setting is: (compound concentration: 200 nM) inactive: -0.463; (compound concentration: 2 uM) inactive: -0.797; (compound concentration: 10 uM) inactive: 1.51.

For `CCOP(=O)(OCC)c1ccc(-c2nc(N)sc2C(=O)C(C)(C)C)o1`, the TEAD-luciferase reporter activity is inactive: -0.874 (compound concentration: 200 nM), inactive: -1.77 (compound concentration: 2 uM) and inactive: 1.22 (compound concentration: 10 uM).

Take `CNCCSC1=Cc2ccccc2Oc2ccc(F)cc21` [fluradoline]: the TEAD-luciferase reporter activity is, setting by setting: (compound concentration: 200 nM) inactive: 0.769; (compound concentration: 2 uM) inactive: 0.458; (compound concentration: 10 uM) active: 7.11.

Regarding `CN1CCC(=C2c3ccccc3Oc3ccc(Cl)cc32)CC1` [clopipazan], the TEAD-luciferase reporter activity reads like this: (compound concentration: 200 nM) inactive: -0.693; (compound concentration: 2 uM) inactive: 0.524; (compound concentration: 10 uM) inactive: 0.313.

For `CC(C)[C@H](N)C(=O)N[C@@H](Cc1cnc[nH]1)C(=O)N[C@H](C(=O)N[C@@H](CC(N)=O)C(=O)O)[C@@H](C)O`, the TEAD-luciferase reporter activity (compound concentration: 2 uM) is inactive: -0.592 and inactive: -1.05; the TEAD-luciferase reporter activity (compound concentration: 10 uM) is inactive: -1.42 and inactive: 2.65.
